The chains behind the UniProt entries cited, without tags or fusion partners. Residues count along the entry.
UniProt P27824, residues 21-592: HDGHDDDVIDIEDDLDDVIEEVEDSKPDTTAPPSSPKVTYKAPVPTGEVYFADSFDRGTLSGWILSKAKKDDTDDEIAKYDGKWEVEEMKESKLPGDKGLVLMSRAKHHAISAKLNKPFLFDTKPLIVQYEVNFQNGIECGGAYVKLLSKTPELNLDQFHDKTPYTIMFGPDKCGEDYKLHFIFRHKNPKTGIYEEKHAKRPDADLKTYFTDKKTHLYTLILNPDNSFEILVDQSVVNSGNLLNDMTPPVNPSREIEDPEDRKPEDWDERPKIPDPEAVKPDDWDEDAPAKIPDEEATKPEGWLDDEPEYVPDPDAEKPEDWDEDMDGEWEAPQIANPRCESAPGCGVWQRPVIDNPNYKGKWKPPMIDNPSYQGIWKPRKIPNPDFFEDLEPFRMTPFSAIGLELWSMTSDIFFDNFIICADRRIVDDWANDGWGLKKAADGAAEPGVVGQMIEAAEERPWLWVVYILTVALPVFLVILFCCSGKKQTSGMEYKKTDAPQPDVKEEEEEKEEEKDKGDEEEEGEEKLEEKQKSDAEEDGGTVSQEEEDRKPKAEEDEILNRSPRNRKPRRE

According to PMC4652285:

Molecular target: T1, Recombinant mouse Gpnmb lacking signal peptide tagged with 3xFLAG peptides (mouse) (UniProt Q99P91)
T1 sequence: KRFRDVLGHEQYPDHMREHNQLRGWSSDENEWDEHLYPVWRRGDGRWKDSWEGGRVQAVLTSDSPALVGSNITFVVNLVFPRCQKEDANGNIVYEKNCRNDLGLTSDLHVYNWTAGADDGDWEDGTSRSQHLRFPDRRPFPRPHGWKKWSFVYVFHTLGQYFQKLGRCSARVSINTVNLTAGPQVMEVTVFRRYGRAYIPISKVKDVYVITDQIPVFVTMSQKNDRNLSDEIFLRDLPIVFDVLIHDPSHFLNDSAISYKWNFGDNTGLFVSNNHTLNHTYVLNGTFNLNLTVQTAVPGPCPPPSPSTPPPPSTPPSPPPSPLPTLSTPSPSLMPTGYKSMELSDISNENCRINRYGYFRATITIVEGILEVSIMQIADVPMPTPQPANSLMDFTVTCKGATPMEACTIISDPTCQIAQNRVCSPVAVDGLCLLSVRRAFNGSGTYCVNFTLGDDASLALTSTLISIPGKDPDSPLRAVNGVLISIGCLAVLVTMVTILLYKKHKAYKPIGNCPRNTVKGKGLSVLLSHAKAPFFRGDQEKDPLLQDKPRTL
Test: affinity purification with mass spectrometry; LI90 cells transfected with p3xFLAG-mGpnmb or control vector; soluble proteins purified on ANTI-FLAG M2 affinity resin, SDS-PAGE, silver stain, visible bands in-gel digested with trypsin, LC-MS/MS

binding: binds
Substance: calnexin (from UniProt P27824 21-592)

Results are given in words; binding and its absence hold for the method and conditions named. Binding seen in cells or lysates may run through a third protein. These calls come from enrichment with a bait or labelling near it, and not all partners need be listed. Tags and fused reporters may be left off the sequences shown.
